Measured values from the supplement of paper PMC10849652.
The list shows a part of the results.

Protein sequences, listed by entry. Tags and fused reporters are not part of them. Lines headed by an entry give the natural chain unless they say otherwise; changes in a name come on top.
UniProt Q9UBF6, whole entry, looked up: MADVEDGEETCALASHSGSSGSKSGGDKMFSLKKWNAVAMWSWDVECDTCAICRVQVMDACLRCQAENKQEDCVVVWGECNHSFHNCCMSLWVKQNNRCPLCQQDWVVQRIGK
UniProt Q8TA86: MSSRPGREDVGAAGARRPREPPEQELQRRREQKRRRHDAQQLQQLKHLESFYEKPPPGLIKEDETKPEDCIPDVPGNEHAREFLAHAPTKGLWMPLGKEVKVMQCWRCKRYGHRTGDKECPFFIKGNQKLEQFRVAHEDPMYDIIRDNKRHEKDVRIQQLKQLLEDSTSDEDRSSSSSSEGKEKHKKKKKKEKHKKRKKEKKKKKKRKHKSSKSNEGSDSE
UniProt Q9P2E9: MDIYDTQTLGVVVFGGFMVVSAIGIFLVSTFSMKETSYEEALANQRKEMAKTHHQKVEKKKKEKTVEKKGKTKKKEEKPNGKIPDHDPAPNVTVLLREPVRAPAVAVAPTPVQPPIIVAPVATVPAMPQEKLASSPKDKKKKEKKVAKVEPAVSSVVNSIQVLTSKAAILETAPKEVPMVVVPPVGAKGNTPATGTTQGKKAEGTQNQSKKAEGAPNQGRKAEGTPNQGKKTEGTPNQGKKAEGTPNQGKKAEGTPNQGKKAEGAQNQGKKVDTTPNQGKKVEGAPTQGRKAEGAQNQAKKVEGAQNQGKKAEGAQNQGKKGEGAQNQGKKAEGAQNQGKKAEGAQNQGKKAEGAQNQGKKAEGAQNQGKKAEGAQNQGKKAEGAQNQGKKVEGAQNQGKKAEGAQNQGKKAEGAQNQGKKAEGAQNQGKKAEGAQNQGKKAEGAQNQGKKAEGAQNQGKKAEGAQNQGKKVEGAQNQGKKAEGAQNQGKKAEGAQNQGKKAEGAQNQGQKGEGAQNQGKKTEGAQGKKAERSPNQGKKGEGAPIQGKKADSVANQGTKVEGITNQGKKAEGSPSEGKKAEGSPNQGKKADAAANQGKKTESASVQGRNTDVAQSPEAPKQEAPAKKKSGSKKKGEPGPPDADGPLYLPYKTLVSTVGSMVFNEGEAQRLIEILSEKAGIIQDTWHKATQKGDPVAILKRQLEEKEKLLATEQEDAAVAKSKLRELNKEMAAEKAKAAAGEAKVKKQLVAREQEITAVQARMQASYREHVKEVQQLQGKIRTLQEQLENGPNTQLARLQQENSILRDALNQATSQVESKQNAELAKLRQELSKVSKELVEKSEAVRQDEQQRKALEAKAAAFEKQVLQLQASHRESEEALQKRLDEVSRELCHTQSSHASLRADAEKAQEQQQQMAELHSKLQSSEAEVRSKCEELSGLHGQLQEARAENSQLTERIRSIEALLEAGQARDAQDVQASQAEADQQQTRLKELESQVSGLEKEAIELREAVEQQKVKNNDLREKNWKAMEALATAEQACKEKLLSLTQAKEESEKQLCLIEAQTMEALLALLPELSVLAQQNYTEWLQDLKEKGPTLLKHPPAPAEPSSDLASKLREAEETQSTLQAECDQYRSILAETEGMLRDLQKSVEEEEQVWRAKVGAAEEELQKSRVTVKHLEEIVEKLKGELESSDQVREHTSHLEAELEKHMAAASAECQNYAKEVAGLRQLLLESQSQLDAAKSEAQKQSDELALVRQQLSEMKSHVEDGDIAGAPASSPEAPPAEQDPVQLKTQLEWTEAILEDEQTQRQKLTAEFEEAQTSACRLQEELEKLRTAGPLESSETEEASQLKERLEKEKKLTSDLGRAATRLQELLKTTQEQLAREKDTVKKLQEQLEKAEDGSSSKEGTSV
UniProt Q96S38: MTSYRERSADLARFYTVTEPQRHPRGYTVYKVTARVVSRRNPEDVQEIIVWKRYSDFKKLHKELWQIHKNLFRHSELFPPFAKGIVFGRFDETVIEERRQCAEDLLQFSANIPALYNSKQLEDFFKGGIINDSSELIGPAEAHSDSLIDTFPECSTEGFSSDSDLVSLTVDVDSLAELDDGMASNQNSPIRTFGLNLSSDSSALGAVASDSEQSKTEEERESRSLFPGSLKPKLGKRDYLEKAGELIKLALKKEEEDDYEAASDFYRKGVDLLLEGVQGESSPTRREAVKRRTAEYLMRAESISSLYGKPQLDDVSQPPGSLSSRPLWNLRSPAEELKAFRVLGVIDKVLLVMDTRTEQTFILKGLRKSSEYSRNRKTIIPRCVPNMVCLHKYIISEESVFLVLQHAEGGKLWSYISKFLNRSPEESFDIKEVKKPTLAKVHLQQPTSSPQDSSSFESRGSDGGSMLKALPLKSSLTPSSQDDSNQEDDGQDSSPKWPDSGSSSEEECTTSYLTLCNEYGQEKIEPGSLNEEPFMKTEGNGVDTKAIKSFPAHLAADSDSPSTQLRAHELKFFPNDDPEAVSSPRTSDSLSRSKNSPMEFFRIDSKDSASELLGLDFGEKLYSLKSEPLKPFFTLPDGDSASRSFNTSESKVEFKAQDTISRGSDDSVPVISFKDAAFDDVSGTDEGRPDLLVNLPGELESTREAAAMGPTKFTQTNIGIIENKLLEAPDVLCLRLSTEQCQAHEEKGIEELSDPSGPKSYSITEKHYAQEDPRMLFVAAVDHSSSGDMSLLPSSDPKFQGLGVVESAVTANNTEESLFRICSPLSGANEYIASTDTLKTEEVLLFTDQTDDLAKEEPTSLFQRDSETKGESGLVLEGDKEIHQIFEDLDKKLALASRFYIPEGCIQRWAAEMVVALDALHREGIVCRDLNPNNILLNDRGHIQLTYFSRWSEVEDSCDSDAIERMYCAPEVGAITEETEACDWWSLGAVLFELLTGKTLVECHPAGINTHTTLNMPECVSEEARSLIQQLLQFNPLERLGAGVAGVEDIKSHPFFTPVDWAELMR
UniProt O75818: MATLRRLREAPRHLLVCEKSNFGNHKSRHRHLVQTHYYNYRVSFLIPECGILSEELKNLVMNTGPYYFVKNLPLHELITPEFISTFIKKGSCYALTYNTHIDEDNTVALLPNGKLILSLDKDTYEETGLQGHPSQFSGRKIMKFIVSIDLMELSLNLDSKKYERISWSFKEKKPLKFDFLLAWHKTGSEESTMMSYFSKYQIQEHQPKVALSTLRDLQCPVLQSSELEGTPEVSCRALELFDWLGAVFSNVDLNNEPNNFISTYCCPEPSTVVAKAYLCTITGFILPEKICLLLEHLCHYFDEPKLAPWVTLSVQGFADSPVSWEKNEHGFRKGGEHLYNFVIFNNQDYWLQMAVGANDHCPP
UniProt P62070: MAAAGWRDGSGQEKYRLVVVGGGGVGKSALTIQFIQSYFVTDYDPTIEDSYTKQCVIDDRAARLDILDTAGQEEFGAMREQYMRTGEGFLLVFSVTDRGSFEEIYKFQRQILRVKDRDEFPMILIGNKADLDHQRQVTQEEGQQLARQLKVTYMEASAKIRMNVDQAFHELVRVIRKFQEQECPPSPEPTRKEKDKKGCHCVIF
UniProt Q96BH1: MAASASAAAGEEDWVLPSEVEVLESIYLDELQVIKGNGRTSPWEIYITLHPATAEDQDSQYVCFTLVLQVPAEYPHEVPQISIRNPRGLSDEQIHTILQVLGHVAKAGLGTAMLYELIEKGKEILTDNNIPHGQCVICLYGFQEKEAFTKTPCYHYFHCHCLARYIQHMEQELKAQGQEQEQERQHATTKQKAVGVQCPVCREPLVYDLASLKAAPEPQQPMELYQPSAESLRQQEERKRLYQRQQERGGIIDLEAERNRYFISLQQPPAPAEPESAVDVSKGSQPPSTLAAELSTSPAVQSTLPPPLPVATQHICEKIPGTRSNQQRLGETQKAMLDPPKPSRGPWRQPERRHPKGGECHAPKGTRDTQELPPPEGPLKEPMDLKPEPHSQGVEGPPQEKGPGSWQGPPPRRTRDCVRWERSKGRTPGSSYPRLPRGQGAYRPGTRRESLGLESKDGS
UniProt P35244: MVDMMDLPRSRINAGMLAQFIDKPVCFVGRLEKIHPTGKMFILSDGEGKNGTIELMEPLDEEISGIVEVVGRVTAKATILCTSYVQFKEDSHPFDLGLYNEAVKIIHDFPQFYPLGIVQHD
UniProt Q15349, whole entry, looked up: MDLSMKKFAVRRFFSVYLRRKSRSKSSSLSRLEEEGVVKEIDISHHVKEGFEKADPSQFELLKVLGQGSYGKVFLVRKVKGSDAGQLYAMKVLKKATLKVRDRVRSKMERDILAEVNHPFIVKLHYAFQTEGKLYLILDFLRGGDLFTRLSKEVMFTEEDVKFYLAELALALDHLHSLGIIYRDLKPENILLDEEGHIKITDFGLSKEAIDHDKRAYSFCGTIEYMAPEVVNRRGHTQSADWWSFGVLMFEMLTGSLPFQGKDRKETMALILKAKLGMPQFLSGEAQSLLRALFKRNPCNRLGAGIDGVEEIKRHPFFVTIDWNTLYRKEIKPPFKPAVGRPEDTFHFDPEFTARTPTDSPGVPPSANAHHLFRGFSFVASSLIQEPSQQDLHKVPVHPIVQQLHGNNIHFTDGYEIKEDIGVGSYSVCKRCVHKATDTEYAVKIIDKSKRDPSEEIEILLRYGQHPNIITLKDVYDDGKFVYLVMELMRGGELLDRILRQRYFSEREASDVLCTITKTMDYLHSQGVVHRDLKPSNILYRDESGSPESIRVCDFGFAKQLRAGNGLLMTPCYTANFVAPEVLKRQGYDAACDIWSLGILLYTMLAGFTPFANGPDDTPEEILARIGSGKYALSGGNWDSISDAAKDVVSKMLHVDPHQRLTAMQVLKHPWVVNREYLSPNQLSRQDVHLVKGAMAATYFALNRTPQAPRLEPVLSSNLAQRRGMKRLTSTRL
UniProt O75695: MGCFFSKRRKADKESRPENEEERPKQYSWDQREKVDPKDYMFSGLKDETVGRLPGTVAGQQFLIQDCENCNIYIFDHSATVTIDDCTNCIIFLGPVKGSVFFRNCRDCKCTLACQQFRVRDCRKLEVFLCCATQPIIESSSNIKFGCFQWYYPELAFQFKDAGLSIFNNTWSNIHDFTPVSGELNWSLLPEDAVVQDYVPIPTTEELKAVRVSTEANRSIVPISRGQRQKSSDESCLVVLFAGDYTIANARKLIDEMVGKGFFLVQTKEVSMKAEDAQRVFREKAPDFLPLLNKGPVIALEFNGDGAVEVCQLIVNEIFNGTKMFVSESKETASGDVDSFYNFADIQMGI
UniProt Q7L523, whole entry, looked up: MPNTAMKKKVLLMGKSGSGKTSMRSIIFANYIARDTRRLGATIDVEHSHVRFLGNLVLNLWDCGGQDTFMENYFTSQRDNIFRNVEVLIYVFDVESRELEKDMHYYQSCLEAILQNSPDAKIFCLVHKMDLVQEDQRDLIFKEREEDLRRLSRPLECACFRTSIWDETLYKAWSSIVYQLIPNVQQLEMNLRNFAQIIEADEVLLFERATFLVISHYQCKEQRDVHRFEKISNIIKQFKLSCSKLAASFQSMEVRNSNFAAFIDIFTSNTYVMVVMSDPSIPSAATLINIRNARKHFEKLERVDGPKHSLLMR
UniProt P23443: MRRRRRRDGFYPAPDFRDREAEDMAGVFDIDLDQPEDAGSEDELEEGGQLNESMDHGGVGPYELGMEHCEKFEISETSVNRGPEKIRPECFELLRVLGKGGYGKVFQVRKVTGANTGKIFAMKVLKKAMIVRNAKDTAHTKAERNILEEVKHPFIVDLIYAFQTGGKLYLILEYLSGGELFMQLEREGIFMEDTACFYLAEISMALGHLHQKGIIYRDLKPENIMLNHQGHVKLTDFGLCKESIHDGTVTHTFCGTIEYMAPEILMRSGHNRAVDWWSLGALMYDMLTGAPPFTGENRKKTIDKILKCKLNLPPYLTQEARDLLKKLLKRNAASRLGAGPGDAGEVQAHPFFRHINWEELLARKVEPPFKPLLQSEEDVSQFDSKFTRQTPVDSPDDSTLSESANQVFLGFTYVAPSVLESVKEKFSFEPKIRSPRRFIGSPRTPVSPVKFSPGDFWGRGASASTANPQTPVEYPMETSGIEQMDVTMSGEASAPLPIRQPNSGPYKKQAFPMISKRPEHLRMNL
UniProt P04844: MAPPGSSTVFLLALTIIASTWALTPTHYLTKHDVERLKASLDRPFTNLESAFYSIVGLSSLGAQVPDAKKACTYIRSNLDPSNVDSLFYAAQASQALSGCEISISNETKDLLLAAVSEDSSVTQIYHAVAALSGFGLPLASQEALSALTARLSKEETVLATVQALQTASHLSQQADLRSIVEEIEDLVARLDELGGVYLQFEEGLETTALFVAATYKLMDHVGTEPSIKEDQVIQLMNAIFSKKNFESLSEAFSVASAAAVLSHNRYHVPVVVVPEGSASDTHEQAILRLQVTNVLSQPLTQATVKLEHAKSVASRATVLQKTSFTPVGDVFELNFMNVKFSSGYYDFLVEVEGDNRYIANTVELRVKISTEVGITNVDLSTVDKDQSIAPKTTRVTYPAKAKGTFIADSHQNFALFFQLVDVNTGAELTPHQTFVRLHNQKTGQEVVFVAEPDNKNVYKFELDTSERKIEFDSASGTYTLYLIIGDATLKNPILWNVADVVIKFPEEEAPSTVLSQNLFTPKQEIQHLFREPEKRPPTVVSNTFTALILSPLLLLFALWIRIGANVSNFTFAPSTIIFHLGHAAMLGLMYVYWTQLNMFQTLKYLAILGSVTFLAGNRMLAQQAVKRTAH

compound: COc1cc(Nc2ncc3c(n2)-c2ccc(Cl)cc2C(c2c(F)cccc2OC)=NC3)ccc1C(=O)O [alisertib]; assay: log2 fold change, soluble protein after heating vs DMSO (PISA); higher = thermal stabilisation; K562 cells, 10 uM, 30 min; active = over 0.2 and 3.5 SD of the protein, either way, in both replicates (recomputed)
Method in brief: (§1)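 K562 cells (2×10^6 cells/mL) were treated with 10 μM compound for 30 min, and aliquots were heated for 3 min over 48°C-58°C. Pooled aliquots were extracted in PBS with 0.5% NP-40 at 4°C, and the supernatant after 21,000xg for 90 min was measured by TMTpro 16plex LC-MS/MS with channel sums equalised. Reported thermal stability, relative to control samples and from duplicates, is a log2 fold change.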

log2 fold change, inactive:
RNF7 (UniProt Q9UBF6) 0.061
RPS20 isoform 2 (UniProt P60866) -0.018
RPS27A (UniProt P62979) -0.041
RP9 (UniProt Q8TA86) 0.028
RRBP1 (UniProt Q9P2E9) -0.057
RPL39P5 (UniProt Q59GN2) -0.308
RPL36AL (UniProt Q969Q0) -0.164
RPS6KC1 (UniProt Q96S38) -0.012
RPL23 (UniProt P62829) -0.136
RPP40 (UniProt O75818) -0.07
RRAS2 isoform 4 (UniProt P62070) -0.099
RPS23 (UniProt P62266) -0.137
RPL30 (UniProt P62888) -0.194
RPL11 (UniProt P62913) -0.124
RNF25 (UniProt Q96BH1) 0.013
RPL12 (UniProt P30050) -0.147
RPS3 (UniProt P23396) -0.05
RPA3 (UniProt P35244) 0.073
RPS25 (UniProt P62851) -0.143
RPL27 (UniProt P61353) -0.126
RPS6KA2 isoform 2 (UniProt Q15349) -0.052
RPL36A (UniProt P83881) -0.131
RP2 (UniProt O75695) 0.425
RPS17 (UniProt P08708) -0.09
RPS13 (UniProt P62277) -0.164
RRAGA (UniProt Q7L523) -0.053
RPL37 (UniProt P61927) -0.104
RPS14 (UniProt P62263) -0.209
RPL36 (UniProt Q9Y3U8) -0.422
RPS29 (UniProt P62273) -0.211
RPS6KB1 (UniProt P23443) -0.036
RPN2 (UniProt P04844) -0.066
RPL15 (UniProt P61313) -0.19
RPL5 (UniProt P46777) -0.097
RPS15 (UniProt P62841) -0.107
RPL24 (UniProt P83731) -0.159
RPS24 isoform 4 (UniProt P62847) -0.072
RPS5 (UniProt P46782) -0.11
RPS2 (UniProt P15880) -0.1
RPS26 (UniProt P62854) -0.288

compound: COc1cc2nc(-c3cc(F)ccc3O)nc(N[C@@H]3CNC[C@H]3C(C)(C)O)c2cc1OC; assay: as above
Method in brief: as §1

log2 fold change, inactive:
RNF7 (UniProt Q9UBF6) -0.013
RPS20 isoform 2 (UniProt P60866) -0.015
RPS27A (UniProt P62979) -0.066
RP9 (UniProt Q8TA86) 0.003
RRBP1 (UniProt Q9P2E9) -0.05
RPL39P5 (UniProt Q59GN2) -0.231
RPL36AL (UniProt Q969Q0) -0.218
RPS6KC1 (UniProt Q96S38) -0.006
RPL23 (UniProt P62829) 0.019
RPP40 (UniProt O75818) 0.002
RRAS2 isoform 4 (UniProt P62070) 0.075
RPS23 (UniProt P62266) -0.06
RPL30 (UniProt P62888) -0.198
RPL11 (UniProt P62913) -0.094
RNF25 (UniProt Q96BH1) -0.012
RPL12 (UniProt P30050) -0.188
RPS3 (UniProt P23396) -0.027
RPA3 (UniProt P35244) -0.05
RPS25 (UniProt P62851) -0.038
RPL27 (UniProt P61353) -0.118
RPS6KA2 isoform 2 (UniProt Q15349) -0.259
RPL36A (UniProt P83881) -0.205
RP2 (UniProt O75695) 0.044
RPS17 (UniProt P08708) -0.064
RPS13 (UniProt P62277) -0.012
RRAGA (UniProt Q7L523) -0.057
RPL37 (UniProt P61927) -0.219
RPS14 (UniProt P62263) -0.047
RPL36 (UniProt Q9Y3U8) -0.171
RPS29 (UniProt P62273) -0.082
RPS6KB1 (UniProt P23443) 0.041
RPN2 (UniProt P04844) -0.054
RPL15 (UniProt P61313) -0.167
RPL5 (UniProt P46777) -0.19
RPS15 (UniProt P62841) 0.027
RPL24 (UniProt P83731) -0.039
RPS24 isoform 4 (UniProt P62847) -0.055
RPS5 (UniProt P46782) -0.056
RPS2 (UniProt P15880) -0.027
RPS26 (UniProt P62854) -0.085
